Experimental data: patent EP0605432B1, “INDUCTION OF CYTOLYTIC T-L[…] CYTOMEGALOVIRUS POLYPEPTIDES” (CITY OF HOPE, priority 1992, dated 2001)
Not every detail of the peptide structures is certain; ends, links or a residue may be inferred. Some compounds share one wording; it may come from a single statement. No end group written: not given here.

System: HCMV infected cells
Assay: CTL analysis of HPLC purified pp65-CNBr digest peptides
Format: cell-based, human
Settings: identification method: by experiment
Description: For chemical cleavage with CNBr, pp65 was dissolved in 60% formic acid and treated overnight under argon with a 100 fold molar excess of CNBr (over methionine residues). The solvent was evaporated at room temperature under a stream of argon, the residue resuspended in water and lyophilized. The peptides were fractionated by HPLC on a Vydac C4 reverse phase column, using a 90-minute linear gradient from 100% solvent A (0.1% TFA) to 100% solvent B (TFA/H2O/CH3CN, 0.1/9.9/90, v/v/v/). The HPLC purified peaks from map A were subjected to amino acid sequencing (performed by City of Hope) and from map B were used for CTL analysis (performed at the Fred Hutchinson Cancer Center).
Figure 4 is a map produced by the HPLC analysis. The HPLC purified peptide peaks designated by asterisks in Figure 4 were sequenced. These peptides correspond to sequences 1 through 6 (Sequence ID Nos. 1-6), of this application. The invention includes the use of these six peptides or portions thereof to lyse HCMV infected cells, and as immunogens in HCMV vaccines and skin test formulations.

CSCC[C@H](NC(=O)[C@H](CO)NC(=O)[C@H](CS)NC(=O)[C@@H](NC(=O)[C@H](CC(C)C)NC(=O)[C@H](CCC(=O)O)NC(=O)[C@H](Cc1c[nH]cn1)NC(=O)[C@H](C)NC(=O)[C@H](CS)NC(=O)[C@@H](NC(=O)[C@@H](NC(=O)[C@H](Cc1c[nH]cn1)NC(=O)[C@H](CCCNC(=N)N)NC(=O)[C@H](CC(C)C)NC(=O)[C@H](C)NC(=O)[C@@H](NC(=O)[C@H](CC(=O)O)NC(=O)[C@H](CCCCN)NC(=O)[C@@H](NC(=O)[C@@H]1CCCN1C(=O)[C@H](Cc1ccccc1)NC(=O)[C@@H](NC(=O)[C@H](Cc1ccccc1)NC(=O)[C@H](C)NC(=O)[C@H](CO)NC(=O)[C@@H](NC(=O)[C@H](Cc1ccc(O)cc1)NC(=O)[C@H](Cc1ccc(O)cc1)NC(=O)[C@@H](NC(=O)[C@H](CC(=O)O)NC(=O)[C@@H]1CCCN1C(=O)[C@H](CCC(=O)O)NC(=O)[C@@H](N)CCCCN)C(C)C)[C@@H](C)O)C(C)C)[C@@H](C)O)C(C)C)C(C)C)C(C)C)C(C)C)C(=O)O [SEQ ID NO:3]
induction of CTLs that lyse HCMV infected cells: Induces CTLs that lyse HCMV infected cells

ENTRATKM [SEQ ID NO:4]
induction of CTLs that lyse HCMV infected cells: Induces CTLs that lyse HCMV infected cells

PPWQAGILARNLVPM [SEQ ID NO:5]
induction of CTLs that lyse HCMV infected cells: Induces CTLs that lyse HCMV infected cells

SIYVYALPLKM [SEQ ID NO:2]
induction of CTLs that lyse HCMV infected cells: Induces CTLs that lyse HCMV infected cells
